Some of these results come from one statement about several compounds together.
T1: Ac-LDL binding to His9-hMSR1 (Homo sapiens, UniProt P21757)
T1 construct: human MSR1 extracellular domain expressed with a N-terminal nonahistidine tag; His9 (nonahistidine) (N); purchased R&D Systems 2708-MS
T1 sequence (P21757 77-451 limits assumed): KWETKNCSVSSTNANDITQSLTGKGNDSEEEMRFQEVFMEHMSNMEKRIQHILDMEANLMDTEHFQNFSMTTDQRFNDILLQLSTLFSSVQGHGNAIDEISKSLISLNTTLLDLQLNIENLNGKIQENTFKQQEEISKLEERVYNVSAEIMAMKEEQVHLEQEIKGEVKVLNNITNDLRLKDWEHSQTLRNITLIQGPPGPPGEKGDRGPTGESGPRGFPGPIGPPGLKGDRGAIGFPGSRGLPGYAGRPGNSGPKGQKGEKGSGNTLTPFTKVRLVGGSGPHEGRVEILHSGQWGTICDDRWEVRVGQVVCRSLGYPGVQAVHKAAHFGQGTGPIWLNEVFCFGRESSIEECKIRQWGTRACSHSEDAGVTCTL

T2: biot-AGE-BSA binding to His9-hMSR1 (Homo sapiens, UniProt P21757)
T2 construct: human MSR1 extracellular domain expressed with a N-terminal nonahistidine tag; His9 (nonahistidine) (N); purchased R&D Systems 2708-MS
T2 sequence (P21757 77-451 limits assumed): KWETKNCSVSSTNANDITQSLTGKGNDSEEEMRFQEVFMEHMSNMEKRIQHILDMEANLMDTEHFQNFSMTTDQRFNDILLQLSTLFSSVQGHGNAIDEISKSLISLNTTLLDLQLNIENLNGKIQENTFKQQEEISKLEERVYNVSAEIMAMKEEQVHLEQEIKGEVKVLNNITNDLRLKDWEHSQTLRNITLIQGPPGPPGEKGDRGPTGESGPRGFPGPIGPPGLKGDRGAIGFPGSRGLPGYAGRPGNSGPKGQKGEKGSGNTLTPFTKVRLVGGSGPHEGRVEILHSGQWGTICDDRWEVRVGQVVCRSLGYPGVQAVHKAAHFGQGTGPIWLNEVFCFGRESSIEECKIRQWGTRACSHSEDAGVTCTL

T3: Ox-LDL binding to His9-hMSR1 (Homo sapiens, UniProt P21757)
T3 construct: human MSR1 extracellular domain expressed with a N-terminal nonahistidine tag; His9 (nonahistidine) (N); purchased R&D Systems 2708-MS
T3 sequence (P21757 77-451 limits assumed): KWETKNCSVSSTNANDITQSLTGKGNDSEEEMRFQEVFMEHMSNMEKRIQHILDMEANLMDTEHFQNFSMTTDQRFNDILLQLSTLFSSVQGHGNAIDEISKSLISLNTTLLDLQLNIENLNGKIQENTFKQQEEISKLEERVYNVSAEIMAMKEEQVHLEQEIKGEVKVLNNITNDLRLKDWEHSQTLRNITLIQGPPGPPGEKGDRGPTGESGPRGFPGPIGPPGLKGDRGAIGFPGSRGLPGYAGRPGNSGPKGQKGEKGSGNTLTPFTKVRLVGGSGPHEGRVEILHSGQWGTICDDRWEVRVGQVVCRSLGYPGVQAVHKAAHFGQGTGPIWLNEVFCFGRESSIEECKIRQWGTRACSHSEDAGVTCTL


Legend:
parental HEK293 cells = assay: Electrochemiluminescence antibody binding assay, non-specific binding control cells; format: cell-based, human; settings: 11 nM antibody
[1] = target: T1, Ac-LDL binding to His9-hMSR1; assay: Competition sandwich ELISA, blocking of Ac-LDL binding; settings: 50 pM Ac-LDL; maximum concentration of antibody tested
Method: (§1) The ability of anti-MSR1 antibodies disclosed herein to block the binding of various ligands to human MSR1 was measured using three competition sandwich ELISA assays. The ligands used in the assays were: (1) acetylated LDL (Ac-LDL), (2) oxidized LDL (Ox-LDL), and (3) advanced glycation end-products of bovine serum albumin (AGE-BSA).
(§2) Anti-MSR1 antibodies or isotype control antibodies were serially diluted as appropriate for each tested ligand and added in duplicate for each serial dilution set to microtiter plates coated with His9-hMSR1. Buffer alone was also added to wells on each coat. […] This assay was conducted in four different assay runs.
(§3) Data analysis was performed using a sigmoidal dose-response model within Prism™ software (GraphPad). Percent blockade at maximum concentration of the antibody tested in each assay was calculated as an indicator of the ability of the antibodies to block the binding of Ac-LDL, Ox-LDL or biot-AGE-BSA to His9-hMSR1 on the plate relative to the baseline of the assay. In the calculation, binding signal of the same concentrations of Ac-LDL, Ox-LDL, or biot-AGE-BSA used for the assays in the absence of antibody was referenced as 100% binding or 0% blocking, while the baseline of the assay, defined as binding signal of the sample of buffer without MSR1 ligands or antibody, was referenced as 0% binding or 100% blocking. […]

[2] = target: T2, biot-AGE-BSA binding to His9-hMSR1; assay: Competition sandwich ELISA, blocking of biot-AGE-BSA binding; settings: 400 pM biot-AGE-BSA; maximum concentration of antibody tested
Method: as §1
For the assay, recombinant monomeric human MSR1 protein comprised of a portion of the human MSR1 extracellular domain expressed with a N-terminal 9-Histidine tag (His9-hMSR1; R&D Systems, Cat #2708-MS) was coated at a concentration of 2 μg/mL in PBS on a 96-well microtiter plate overnight at 4° C. for use in competition ELISA assays with Ac-LDL, Ox-LDL, or biotinylated-AGE-BSA (“biot-AGE-BSA”). […] (Concentrations of Ac-LDL, Ox-LDL and biot-AGE-BSA for antibody inhibition assays were selected from the approximate midway point within the linear portion of individual binding curves of Ac-LDL, Ox-LDL or biot-AGE-BSA to plate-coated His9-hMSR1.) Wells were washed, and plate-bound Ac-LDL or Ox-LDL were detected with anti-LDL rabbit antibody (Alfa Aesar, Cat #J64398) in combination with anti-rabbit IgG (H+L) specific donkey polyclonal antibodies conjugated with horseradish peroxidase (HRP) (JacksonImmunoResearch, Cat #711-035-152) and biot-AGE-BSA was detected with a streptavidin-HRP (ThermoFisher Scientific, Cat #N200). […]

[3] = target: T3, Ox-LDL binding to His9-hMSR1; assay: Competition sandwich ELISA, blocking of Ox-LDL binding; settings: 10 nM Ox-LDL; maximum concentration of antibody tested
Method: as §1, §2, §3

Row | Molecule | binding ratio above isotype control (parental HEK293 cells) | percent blockade of Ac-LDL binding to hMSR1 [1] | percent blockade of biot-AGE-BSA binding to hMSR1 [2] | percent blockade of Ox-LDL binding to hMSR1 [3]
1 | H1H27731P-N297Q: one of "Twelve anti-MSR1 antibodies"; "made with an N297Q single point mutation in human Fcγ portion" (antibody, V domains shown) VH: QLQLQESGPGLVKPSETLSLTCTVSGGSISRISYYWGWIRQPPGKGLEWIGSIYDSGSTYYNPSLKSRVTISIDTSKNQFSLKLSSVTAADTAVYYCVRYSSSSAFAFDYWGQGTLVTVSS VL: DIQMTQSPSSVSASVGDRVTITCRASQGISSWLAWYQQKPGKAPKLLIYAASSLQSGVPSRFSGSGSGTDFTLTISSLQPEDFATYYCQQANSFPFTFGPGTKVDIKR | ≥ 5 fold | – | – | –
2 | H1H27734P-N297Q: one of "Twelve anti-MSR1 antibodies"; "made with an N297Q single point mutation in human Fcγ portion" (antibody, V domains shown) VH: EVQLVESRGGLVQPGGSLRLSCAASGFTFSSYAMSWVRQAPGKGLEWVSAISGSGGSTFYADSVKGRFTISRDNSKNTVYLQMNSLRAEDTAVYYCAKALVLRFLEWLGDYWGQGTLVTVSS VL: DIQMTQSPSTLSASVGDRVTITCRASQSISSWLAWFQQKPGKAPKLLIYKASSLESGVPSRFSGSGSGTEFTLTISSLQPDDFATYYCQQYKSYWTFGQGTKVEIKR | ≥ 5 fold | – | – | –
3 | H1H27754P-N297Q: one of "Twelve anti-MSR1 antibodies"; "made with an N297Q single point mutation in human Fcγ portion" (antibody, V domains shown) VH: EVQLVESGGGLVQPGGSLRLSCAASGFTFRTYAMTWVRQAPGKGLDWVSAITGDGGNTYYADSVKGRFTISRDNSKNTLYLQMNSLRAEDTAIYYCAKDQRFSFALYYFDYWGQGTLVTVSS VL: DIQMTQSPSSVSASVGDRVTITCRASQGISSWLAWYQQKPGNAPKLLIYAAFSLQSGVPSRFSGSGSGTDFTLTISSLQPEDFATYYCQQANNFPWTFGQGTKVEIKR | ≥ 5 fold | – | – | –
4 | H2aM25695N: one of "Twelve anti-MSR1 antibodies"; "an “H2aM” antibody has a mouse IgG2a Fc" (antibody, V domains shown) VH: QVQLQESGPGLVKPSETLSLTCTVTGGSISRNYWSWIRQPPGKGLEWIGYIYYSGSINYNPSLKSRVTISVDMSKNQFSLKLNSVTAADTAVYYCARDRWNWKYGMDVWGQGTTVIVSS VL: EIVLTQSPGTLSLSPGERATLSCRASQTVRNSYLAWYHQKPGQAPRLLIYGASSRATGIPDRFSGSGSGTDFTLTISRLEPEDFAVYYCQQYGSSYWTFGQGTKMEIKR | ≥ 5 fold | – | – | –
5 | H1H21227N-N297Q: "modified versions of 21227N (H1H21227N-N297Q and H1H21227N-N297D)"; anti-MSR1 antibody "with a N297Q single point mutation" (antibody, V domains shown) VH: QVQLVQSGAEVKKPGASVKVSCKVSGYTLTELSIHWVRQVPGKGLEWMGGFDPEEGETIFAQEFRDRVTLTEDTSPDTAYMELSSLKSEDAAVYYCTTPRYCNNGICYDYWGQGTLVTVSS VL: DIQMTQSPSSLSASVGDRVTITCRASQSISNYLNWYQQKPGKAPKLLIYTASSLQSGVPSRFSGSGSGTDFTLTISSLQTEDFATYYCQQSYSNFPITFGQGTRLEIKR | – | > 50% | > 50% | > 50%
6 | H1H21227N-N297D: "The 21227N antibody was also produced as a third version with a N297D mutation" (antibody, V domains shown) VH: QVQLVQSGAEVKKPGASVKVSCKVSGYTLTELSIHWVRQVPGKGLEWMGGFDPEEGETIFAQEFRDRVTLTEDTSPDTAYMELSSLKSEDAAVYYCTTPRYCNNGICYDYWGQGTLVTVSS VL: DIQMTQSPSSLSASVGDRVTITCRASQSISNYLNWYQQKPGKAPKLLIYTASSLQSGVPSRFSGSGSGTDFTLTISSLQTEDFATYYCQQSYSNFPITFGQGTRLEIKR | – | > 50% | > 50% | > 50%
